No constants are given. Whether binding was seen depends on the method and setting. Some binding calls cover weakened binding; strength is not graded here.
Tests used:
[1] = target: CbpA (calprotectin-binding protein A) of Neisseria meningitidis (N. meningitidis strain H44/76) (UniProt Q7DDB6); assay: binding to intact bacterial cells, cell-bound protein detected by Western blot; cells from 1 ml culture (OD550 1.0) incubated 1 h in 1 ml HBSS with 4 µg calprotectin, washed three times, lysates blotted with mAb 27E10; cells grown with or without 100 µM IPTG; in Figure 3D also with 1 µg/ml ZnSO4 or MnCl2 (binding enhanced); only the binder purified
[2] = target: CbpA (calprotectin-binding protein A) of Neisseria meningitidis (N. meningitidis strain H44/76) (UniProt Q7DDB6); assay: condition: only cells grown without IPTG (cbpA not induced); 4 µg calprotectin in 1 ml; binding to intact bacterial cells, cell-bound protein detected by Western blot; cells from 1 ml culture (OD550 1.0) incubated 1 h in 1 ml HBSS with 4 µg calprotectin, washed three times, lysates blotted with mAb 27E10; cells grown with or without 100 µM IPTG; in Figure 3D also with 1 µg/ml ZnSO4 or MnCl2 (binding enhanced); only the binder purified

Protein sequences, listed by entry. Tags and fused reporters are not part of them. Residues count along the entry.
UniProt Q7DDB6, residues 26-921: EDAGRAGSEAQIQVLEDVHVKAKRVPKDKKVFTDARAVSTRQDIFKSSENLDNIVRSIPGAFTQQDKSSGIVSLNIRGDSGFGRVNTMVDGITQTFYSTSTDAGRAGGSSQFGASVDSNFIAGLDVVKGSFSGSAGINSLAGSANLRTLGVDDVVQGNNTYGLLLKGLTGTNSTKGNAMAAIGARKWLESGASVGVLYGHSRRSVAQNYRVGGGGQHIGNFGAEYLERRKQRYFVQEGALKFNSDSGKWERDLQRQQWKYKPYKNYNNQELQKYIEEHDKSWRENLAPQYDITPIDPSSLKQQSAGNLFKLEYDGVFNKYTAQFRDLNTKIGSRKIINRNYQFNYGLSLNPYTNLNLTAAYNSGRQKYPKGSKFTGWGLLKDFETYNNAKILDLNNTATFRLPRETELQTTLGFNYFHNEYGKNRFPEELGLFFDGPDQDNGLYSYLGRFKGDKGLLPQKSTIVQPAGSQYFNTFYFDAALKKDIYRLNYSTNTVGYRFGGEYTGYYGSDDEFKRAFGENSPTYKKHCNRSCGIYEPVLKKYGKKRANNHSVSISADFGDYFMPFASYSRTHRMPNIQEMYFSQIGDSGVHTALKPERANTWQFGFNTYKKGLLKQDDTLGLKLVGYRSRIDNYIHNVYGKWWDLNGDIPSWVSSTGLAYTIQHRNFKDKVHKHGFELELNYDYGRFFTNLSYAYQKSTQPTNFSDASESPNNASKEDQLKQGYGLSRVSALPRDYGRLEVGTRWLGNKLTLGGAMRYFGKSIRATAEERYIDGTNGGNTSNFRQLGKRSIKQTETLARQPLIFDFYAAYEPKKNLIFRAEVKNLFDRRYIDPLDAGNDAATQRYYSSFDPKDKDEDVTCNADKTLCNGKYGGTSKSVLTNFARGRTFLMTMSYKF

B1: calprotectin (complex, UniProt P05109 1-93; P06702 1-114)
chain 1: MLTELEKALNSIIDVYHKYSLIKGNFHAVYRDDLKKLLETECPQYIRKKGADVWFKELDINTDGAVNFQEFLILVIKMGVAAHKKSHEESHKE
chain 2: MTCKMSQLERNIETIINTFHQYSVKLGHPDTLNQGEFKELVRKDLQNFLKKENKNEKVIEHIMEDLDTNADKQLSFEEFIMLMARLTWASHEKMHEGDEGPGHHHKPGLGEGTP
- binding [1]: binds
- binding [2]: no binding

— publication PMC3814407
